From publication PMC5666006, “Combating virulence of Gram-negative bacilli by OmpA inhibition” (Scientific Reports, 2017)

Test: AOA-2 pharmacokinetics in serum
Conditions: mouse, in vivo, ip, 10 mg/kg

N=C(N)NCCC[C@@H]1NC(=O)[C@H]2CCCN2C(=O)[C@H](Cc2c[nH]c3ccccc23)NC(=O)[C@H](CCCNC(=N)N)NC(=O)[C@H]2CCCN2C(=O)[C@H](Cc2c[nH]c3ccccc23)NC1=O [AOA-2]
Cmax: 12600 ng/mL
